Data as given in PMC8294009 (Chemical Science, 2021).
HELM strings list residues between dots; [ac] is acetyl, [am] amide, other brackets name non-standard units. *1 amine or outer side, *2 acyl side, *3 side chain or, on linkers, in order; H or OH if unused. Bridges are numbered along the chain shown (N, C = ends). X1 = O=C(C=NOCCCCCCOc1cc(C[*:2])cc(C[*:3])c1)[*:1]; X3 = O=C(C=NOCCCOc1cc(C[*:2])cc(C[*:3])c1)[*:1]; X2 = O=C(C=NOCc1cc(C[*:2])cc(C[*:3])c1)[*:1]

Assay: peptide synthesis
Conditions: cyclisation step

Going from “TCQGECGGG-NH2 (linker N-2-6 via X3; SMILES C[C@@H](O)[C@@H]1NC(=O)C=NOCCCOc2cc3cc(c2)CSC[C@H](NC1=O)C(=O)N[C@@H](CCC(N)=O)C(=O)NCC(=O)N[C@@H](CCC(=O)O)C(=O)N[C@H](C(=O)NCC(=O)NCC(=O)NCC(N)=O)CSC3)” to “PEPTIDE1{S.T.C.Q.G.E.C.G.G.G.[am]}|CHEM1{[PFS]}$PEPTIDE1,CHEM1,3:R3-1:R1|PEPTIDE1,CHEM1,7:R3-1:R2$$$V2.0”, the cyclisation yield falls from 47% to 31%.

Compared with “WDYRECYLEC-NH2 (linker N-6-10 via X2; SMILES CC(C)C[C@@H]1NC(=O)[C@H](Cc2ccc(O)cc2)NC(=O)[C@@H]2CSCc3cc(cc(c3)CSC[C@@H](C(N)=O)NC(=O)[C@H](CCC(=O)O)NC1=O)CON=CC(=O)N[C@@H](Cc1c[nH]c3ccccc13)C(=O)N[C@@H](CC(=O)O)C(=O)N[C@@H](Cc1ccc(O)cc1)C(=O)N[C@@H](CCCNC(=N)N)C(=O)N[C@@H](CCC(=O)O)C(=O)N2)”, “PEPTIDE1{S.I.C.R.F.F.C.G.G.G.[am]}|CHEM1{[PFS]}$PEPTIDE1,CHEM1,3:R3-1:R1|PEPTIDE1,CHEM1,7:R3-1:R2$$$V2.0” is lower in cyclisation yield: 54% for the first, 40% for the second.

First: HDCYLEC-NH2 (linker N-3-7 via X2; SMILES CC(C)C[C@@H]1NC(=O)[C@H](Cc2ccc(O)cc2)NC(=O)[C@@H]2CSCc3cc(cc(c3)CSC[C@@H](C(N)=O)NC(=O)[C@H](CCC(=O)O)NC1=O)CON=CC(=O)N[C@@H](Cc1c[nH]cn1)C(=O)N[C@@H](CC(=O)O)C(=O)N2)
Second: PEPTIDE1{S.H.D.C.Y.L.E.C.[am]}|CHEM1{[mXyl]}$PEPTIDE1,CHEM1,4:R3-1:R1|PEPTIDE1,CHEM1,8:R3-1:R2$$$V2.0
The cyclisation yield of the first is higher: 43% for the first, 27% for the second.

Compared with “WDYRECYLEC-NH2 (linker N-6-10 via X1; SMILES CC(C)C[C@@H]1NC(=O)[C@H](Cc2ccc(O)cc2)NC(=O)[C@@H]2CSCc3cc(cc(c3)OCCCCCCON=CC(=O)N[C@@H](Cc3c[nH]c4ccccc34)C(=O)N[C@@H](CC(=O)O)C(=O)N[C@@H](Cc3ccc(O)cc3)C(=O)N[C@@H](CCCNC(=N)N)C(=O)N[C@@H](CCC(=O)O)C(=O)N2)CSC[C@@H](C(N)=O)NC(=O)[C@H](CCC(=O)O)NC1=O)”, “YCKRAHKNC-NH2 (linker N-2-9 via X1; SMILES C[C@@H]1NC(=O)[C@H](CCCNC(=N)N)NC(=O)[C@H](CCCCN)NC(=O)[C@@H]2CSCc3cc(cc(c3)OCCCCCCON=CC(=O)N[C@@H](Cc3ccc(O)cc3)C(=O)N2)CSC[C@@H](C(N)=O)NC(=O)[C@H](CC(N)=O)NC(=O)[C@H](CCCCN)NC(=O)[C@H](Cc2c[nH]cn2)NC1=O)” is lower in cyclisation yield: 42% for the first, 14% for the second.

Same assay, conditions: cyclisation step, bicyclic, sequence written open

Compared with H-SPCQRGHMFC-NH2, H-SICRFFCGGG-NH2 is higher in cyclisation yield: 8.6% for the first, 55% for the second.

Compared with H-SPCKKAHGAC-NH2, H-SWCRGHDRTC-NH2 is lower in cyclisation yield: 9% for the first, 6% for the second.

Going from H-SNTWNPWCPWDAPL-cam to Ac-CSWPARCLHQDLC-NH2, the cyclisation yield falls from 41% to 33%.

With Ac-CNTWNPWCPWDAPLCam-NH2 the cyclisation yield was 38%.

Same assay, conditions: cyclisation step, thioether ring, sequence written open

Going from H-SWDYRECYLEC-NH2 to H-STCQGECGGG-NH2, the cyclisation yield rises from 12% to 19%.

Compared with H-SQCKRAHAEC-NH2, H-SYCKRAHKNC-NH2 is higher in cyclisation yield: 10% for the first, 32% for the second.
